Drawing on paper PMC11320359, this text covers binding for three molecules.

By UniProt entry, the sequences of proteins in these tests, tags left out. Where a name states a change or a piece, a line headed by the entry shows the natural chain unless it says otherwise.
UniProt Q8K4Z2: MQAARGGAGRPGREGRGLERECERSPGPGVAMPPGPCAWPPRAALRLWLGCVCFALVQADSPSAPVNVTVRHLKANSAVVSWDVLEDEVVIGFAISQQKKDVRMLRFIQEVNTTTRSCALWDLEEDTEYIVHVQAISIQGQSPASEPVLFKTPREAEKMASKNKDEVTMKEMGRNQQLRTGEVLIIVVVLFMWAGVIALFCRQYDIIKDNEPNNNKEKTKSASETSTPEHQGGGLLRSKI
UniProt P49817: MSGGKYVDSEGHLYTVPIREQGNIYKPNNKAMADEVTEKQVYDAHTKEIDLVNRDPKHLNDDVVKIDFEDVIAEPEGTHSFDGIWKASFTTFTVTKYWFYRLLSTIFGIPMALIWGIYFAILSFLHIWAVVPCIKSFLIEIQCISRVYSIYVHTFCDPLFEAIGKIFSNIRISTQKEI

Test [1] addresses Fibronectin Type III Domain Containing 5 / irisin (endogenous in osteoblasts) (mouse (endogenous in MC3T3-E1)) (UniProt Q8K4Z2). The test is described as follows: co-IP; whole-cell lysates of osteoblasts (3 mg protein) with 4 ug primary antibody, overnight at 4°C, Proteintech kit PK10007; Western blot; endogenous proteins. In general terms: A western blot detects proteins with antibodies after separation by electrophoresis.

The target in test [2] is GST-irisin recombinant protein (UniProt Q8K4Z2). The test is described as follows: pull-down; GST-irisin held on GST magnetic beads; target protein added, 30 min at room temperature; binding buffer 140 mM NaCl, 2.7 mM KCl, 10 mM Na2HPO4, 1.8 mM KH2PO4, pH 7.4; eluted with 10 mM reduced glutathione; Western blot for Cav1; GST as negative control; only the target purified.
The target of test [3] is Fibronectin Type III Domain Containing 5 / irisin (endogenous in osteoblasts) (mouse (endogenous in MC3T3-E1)) (UniProt Q8K4Z2). As to the kind of experiment: co-IP; whole-cell lysates of osteoblasts (3 mg protein) with 4 ug primary antibody, overnight at 4°C, Proteintech kit PK10007; Western blot; endogenous proteins. The source holds these as a separate data set.

Read-outs that look alike come from different tables or passages of the source. Results are given in words; binding and its absence hold for the method and conditions named. In cells and extracts the contact can be indirect. Binding calls can cover weak binding; strength is not graded here.

On to “Caveolin 1 (endogenous in osteoblasts) (from UniProt P49817 1-178)”, for which, in test [1], the binding result was “binds”. “Caveolin 1 (prey of the GST-irisin pull-down) (from UniProt P49817 1-178)”: the binding entry in test [2] was “binds”.

B1: Heme oxygenase 1 (endogenous in osteoblasts) (enzyme, UniProt P14901 1-289)
chain: MERPQPDSMPQDLSEALKEATKEVHIQAENAEFMKNFQKGQVSREGFKLVMASLYHIYTALEEEIERNKQNPVYAPLYFPEELHRRAALEQDMAFWYGPHWQEIIPCTPATQHYVKRLHEVGRTHPELLVAHAYTRYLGDLSGGQVLKKIAQKAMALPSSGEGLAFFTFPNIDSPTKFKQLYRARMNTLEMTPEVKHRVTEEAKTAFLLNIELFEELQVMLTEEHKDQSPSQMASLRQRPASLVQDTAPAETPRGKPQISTSSSQTPLLQWVLTLSFLLATVAVGIYAM
As for B1, in test [3], the binding entry is “binds weakly”.
